Results are given in words; binding and its absence hold for the method and conditions named. Binding seen in cells or lysates may run through a third protein. A result given as binding can be weak or reduced; the word gives no strength. Sequences can lack the tags named with a protein.
Target: T1, TGB1-YFPc (TGB1 fused with the C-terminal half of YFP, 35S promoter) (Barley stripe mosaic virus) (UniProt P04867)
T1 sequence: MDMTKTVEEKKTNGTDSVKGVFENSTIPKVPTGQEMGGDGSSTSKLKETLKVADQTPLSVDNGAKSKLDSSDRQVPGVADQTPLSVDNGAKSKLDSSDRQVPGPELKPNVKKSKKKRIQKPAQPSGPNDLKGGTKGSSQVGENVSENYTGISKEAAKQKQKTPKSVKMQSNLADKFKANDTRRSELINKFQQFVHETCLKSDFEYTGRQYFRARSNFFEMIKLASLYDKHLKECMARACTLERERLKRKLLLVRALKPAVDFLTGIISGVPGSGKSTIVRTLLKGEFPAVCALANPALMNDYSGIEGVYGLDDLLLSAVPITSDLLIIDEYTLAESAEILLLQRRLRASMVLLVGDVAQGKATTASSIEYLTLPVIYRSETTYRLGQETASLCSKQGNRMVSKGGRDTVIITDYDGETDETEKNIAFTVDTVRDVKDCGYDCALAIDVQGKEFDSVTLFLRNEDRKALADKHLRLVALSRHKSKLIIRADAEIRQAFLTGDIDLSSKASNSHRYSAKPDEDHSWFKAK
Test: split reporter; BiFC, YFPn and YFPc fusions under the 35S promoter co-expressed in N. benthamiana leaves by agroinfiltration, confocal microscopy at 3 dpi

| Substance | binding |
| --- | --- |
| γb_(86-152)-YFPn (Barley stripe mosaic virus) (domain or fragment) | no binding |
| γb_(1-85)-YFPn (Barley stripe mosaic virus) (domain or fragment) | binds |
| γb_(1-24)-YFPn (Barley stripe mosaic virus) (domain or fragment) | no binding |
| γb_(60-85)-YFPn (Barley stripe mosaic virus) (domain or fragment) | no binding |
| γb_(19-47)-YFPn (Barley stripe mosaic virus) (domain or fragment) | no binding |
